Data on 5 molecules can be found in PMC5927464 (2018).

These are yes or no findings as the source states them, for the method shown. Binding seen in cells or lysates may run through a third protein. A result given as binding can be weak or reduced; the word gives no strength. Tags and fused reporters may be left off the sequences shown.

B1: Flag-MuRNase L H311A (enzyme, UniProt Q05921 1-735)
chain: METPDYNTPQGGTPSAGSQRTVVEDDSSLIKAVQKGDVVRVQQLLEKGADANACEDTWGWTPLHNAVQAGRVDIVNLLLSHGADPHRRKKNGATPFIIAGIQGDVKLLEILLSCGADVNECDENGFTAFMEAAERGNAEALRFLFAKGANVNLRRQTTKDKRRLKQGGATALMSAAEKGHLEVLRILLNDMKAEVDARDNMGRNALIRTLLNWDCENVEEITSILIQHGADVNVRGERGKTPLIAAVERKHTGLVQMLLSREGINIDARDNEGKTALLIAVDKQLKEIVQLLLEKGADKCDDLVWIARRNADYHLVKLLLPYVANPDTDPPAGDWSPHSSRWGTALKSLHSMTRPMIGKLKIFIHDDYKIAGTSEGAVYLGIYDNREVAVKVFRENSPRGCKEVSCLRDCGDHSNLVAFYGREDDKGCLYVCVSLCEWTLEEFLRLPREEPVENGEDKFAHSILLSIFEGVQKLHLHGYSHQDLQPQNILIDSKKAVRLADFDQSIRWMGESQMVRRDLEDLGRLVLYVVMKGEIPFETLKTQNDEVLLTMSPDEETKDLIHCLFSPGENVKNCLVDLLGHPFFWTWENRYRTLRNVGNESDIKVRKCKSDLLRLLQHQTLEPPRSFDQWTSKIDKNVMDEMNHFYEKRKKNPYQDTVGDLLKFIRNIGEHINEEKKRGMKEILGDPSRYFQETFPDLVIYIYKKLKETEYRKHFPQPPPRLSVPEAVGPGGIQS
B2: Flag-MuRNase L–G47, N50, V51 (enzyme, UniProt Q05921 1-735)
chain: METPDYNTPQGGTPSAGSQRTVVEDDSSLIKAVQKGDVVRVQQLLEGGANVNACEDTWGWTPLHNAVQAGRVDIVNLLLSHGADPHRRKKNGATPFIIAGIQGDVKLLEILLSCGADVNECDENGFTAFMEAAERGNAEALRFLFAKGANVNLRRQTTKDKRRLKQGGATALMSAAEKGHLEVLRILLNDMKAEVDARDNMGRNALIRTLLNWDCENVEEITSILIQHGADVNVRGERGKTPLIAAVERKHTGLVQMLLSREGINIDARDNEGKTALLIAVDKQLKEIVQLLLEKGADKCDDLVWIARRNHDYHLVKLLLPYVANPDTDPPAGDWSPHSSRWGTALKSLHSMTRPMIGKLKIFIHDDYKIAGTSEGAVYLGIYDNREVAVKVFRENSPRGCKEVSCLRDCGDHSNLVAFYGREDDKGCLYVCVSLCEWTLEEFLRLPREEPVENGEDKFAHSILLSIFEGVQKLHLHGYSHQDLQPQNILIDSKKAVRLADFDQSIRWMGESQMVRRDLEDLGRLVLYVVMKGEIPFETLKTQNDEVLLTMSPDEETKDLIHCLFSPGENVKNCLVDLLGHPFFWTWENRYRTLRNVGNESDIKVRKCKSDLLRLLQHQTLEPPRSFDQWTSKIDKNVMDEMNHFYEKRKKNPYQDTVGDLLKFIRNIGEHINEEKKRGMKEILGDPSRYFQETFPDLVIYIYKKLKETEYRKHFPQPPPRLSVPEAVGPGGIQS
B3: Flag-HuRNase L—K47, D50, A51 (enzyme, UniProt Q05823 21-719)
chain: AAVEDNHLLIKAVQNEDVDLVQQLLEKGADANFQEEEGGWTPLHNAVQMSREDIVELLLRHGADPVLRKKNGATPFILAAIAGSVKLLKLFLSKGADVNECDFYGFTAFMEAAVYGKVKALKFLYKRGANVNLRRKTKEDQERLRKGGATALMDAAEKGHVEVLKILLDEMGADVNACDNMGRNALIHALLSSDDSDVEAITHLLLDHGADVNVRGERGKTPLILAVEKKHLGLVQRLLEQEHIEINDTDSDGKTALLLAVELKLKKIAELLCKRGASTDCGDLVMTARRNYDHSLVKVLLSHGAKEDFHPPAEDWKPQSSHWGAALKDLHRIYRPMIGKLKFFIDEKYKIADTSEGGIYLGFYEKQEVAVKTFCEGSPRAQREVSCLQSSRENSHLVTFYGSESHRGHLFVCVTLCEQTLEACLDVHRGEDVENEEDEFARNVLSSIFKAVQELHLSCGYTHQDLQPQNILIDSKKAAHLADFDKSIKWAGDPQEVKRDLEDLGRLVLYVVKKGSISFEDLKAQSNEEVVQLSPDEETKDLIHRLFHPGEHVRDCLSDLLGHPFFWTWESRYRTLRNVGNESDIKTRKSESEILRLLQPGPSEHSKSFDKWTTKINECVMKKMNKFYEKRGNFYQNTVGDLLKFIRNLGEHIDEEKHKKMKLKIGDPSLYFQKTFPDLVIYVYTKLQNTEYRKHFPQT
B4: Flag-HuRNase L—D26, S27, S28 (enzyme, UniProt Q05823 21-719)
chain: AAVEDDSSLIKAVQNEDVDLVQQLLEGGANVNFQEEEGGWTPLHNAVQMSREDIVELLLRHGADPVLRKKNGATPFILAAIAGSVKLLKLFLSKGADVNECDFYGFTAFMEAAVYGKVKALKFLYKRGANVNLRRKTKEDQERLRKGGATALMDAAEKGHVEVLKILLDEMGADVNACDNMGRNALIHALLSSDDSDVEAITHLLLDHGADVNVRGERGKTPLILAVEKKHLGLVQRLLEQEHIEINDTDSDGKTALLLAVELKLKKIAELLCKRGASTDCGDLVMTARRNYDHSLVKVLLSHGAKEDFHPPAEDWKPQSSHWGAALKDLHRIYRPMIGKLKFFIDEKYKIADTSEGGIYLGFYEKQEVAVKTFCEGSPRAQREVSCLQSSRENSHLVTFYGSESHRGHLFVCVTLCEQTLEACLDVHRGEDVENEEDEFARNVLSSIFKAVQELHLSCGYTHQDLQPQNILIDSKKAAHLADFDKSIKWAGDPQEVKRDLEDLGRLVLYVVKKGSISFEDLKAQSNEEVVQLSPDEETKDLIHRLFHPGEHVRDCLSDLLGHPFFWTWESRYRTLRNVGNESDIKTRKSESEILRLLQPGPSEHSKSFDKWTTKINECVMKKMNKFYEKRGNFYQNTVGDLLKFIRNLGEHIDEEKHKKMKLKIGDPSLYFQKTFPDLVIYVYTKLQNTEYRKHFPQT
B5: Flag-HuRNase L—D26, S27, S28, K47, D50, A51 (enzyme, UniProt Q05823 21-719)
chain: AAVEDDSSLIKAVQNEDVDLVQQLLEKGADANFQEEEGGWTPLHNAVQMSREDIVELLLRHGADPVLRKKNGATPFILAAIAGSVKLLKLFLSKGADVNECDFYGFTAFMEAAVYGKVKALKFLYKRGANVNLRRKTKEDQERLRKGGATALMDAAEKGHVEVLKILLDEMGADVNACDNMGRNALIHALLSSDDSDVEAITHLLLDHGADVNVRGERGKTPLILAVEKKHLGLVQRLLEQEHIEINDTDSDGKTALLLAVELKLKKIAELLCKRGASTDCGDLVMTARRNYDHSLVKVLLSHGAKEDFHPPAEDWKPQSSHWGAALKDLHRIYRPMIGKLKFFIDEKYKIADTSEGGIYLGFYEKQEVAVKTFCEGSPRAQREVSCLQSSRENSHLVTFYGSESHRGHLFVCVTLCEQTLEACLDVHRGEDVENEEDEFARNVLSSIFKAVQELHLSCGYTHQDLQPQNILIDSKKAAHLADFDKSIKWAGDPQEVKRDLEDLGRLVLYVVKKGSISFEDLKAQSNEEVVQLSPDEETKDLIHRLFHPGEHVRDCLSDLLGHPFFWTWESRYRTLRNVGNESDIKTRKSESEILRLLQPGPSEHSKSFDKWTTKINECVMKKMNKFYEKRGNFYQNTVGDLLKFIRNLGEHIDEEKHKKMKLKIGDPSLYFQKTFPDLVIYVYTKLQNTEYRKHFPQT

The target of the assay is HA-tagged L* protein of TMEV strain DA (HA-L*DA) (Theiler's murine encephalomyelitis virus, strain DA). Description: co-IP; Flag-tagged RNase L constructs and N-terminally HA-tagged L* co-expressed in 293T cells; HA-L* immunoprecipitated from lysates with anti-HA antibody and protein A/G magnetic beads; immunoblot with anti-Flag and anti-HA.
As for B1, the binding entry is given as “binds”.
With B2 the entry was “binds”; with B3, “binds”.
As for B4, the entry is “no binding”; as for B5, “binds”.
